Test results published in publication PMC13043726.
Construct, isoform or probe ends are uncertain for at least one entry. A weaker result is weaker than the reference pair of the same experiment. At least one verdict rests on a figure or table, not on a statement of the authors.

Sequences of proteins named here, by UniProt entry; tags and fusion partners are left off. A change or cut given only in a name is not applied to a line headed by its entry.
UniProt P23246: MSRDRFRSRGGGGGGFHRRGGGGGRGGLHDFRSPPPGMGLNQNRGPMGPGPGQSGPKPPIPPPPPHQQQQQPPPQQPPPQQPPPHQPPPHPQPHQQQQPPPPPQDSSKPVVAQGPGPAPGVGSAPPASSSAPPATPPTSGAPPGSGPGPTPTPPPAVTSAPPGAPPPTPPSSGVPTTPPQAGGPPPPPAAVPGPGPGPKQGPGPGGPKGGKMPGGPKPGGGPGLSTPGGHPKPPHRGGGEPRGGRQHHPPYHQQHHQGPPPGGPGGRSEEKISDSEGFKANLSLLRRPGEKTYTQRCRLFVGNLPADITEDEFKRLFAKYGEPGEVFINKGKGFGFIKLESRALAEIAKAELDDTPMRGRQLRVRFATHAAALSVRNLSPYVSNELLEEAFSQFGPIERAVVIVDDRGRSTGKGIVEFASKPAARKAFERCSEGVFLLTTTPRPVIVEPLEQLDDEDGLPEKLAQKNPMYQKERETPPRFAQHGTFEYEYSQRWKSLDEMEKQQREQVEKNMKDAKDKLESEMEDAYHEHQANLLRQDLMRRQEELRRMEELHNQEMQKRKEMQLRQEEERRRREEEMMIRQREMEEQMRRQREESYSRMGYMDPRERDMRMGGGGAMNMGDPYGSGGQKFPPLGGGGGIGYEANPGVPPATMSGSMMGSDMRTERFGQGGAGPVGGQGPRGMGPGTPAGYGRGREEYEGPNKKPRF

Biological target: SFPQ full-length (Homo sapiens) (UniProt P23246)
Assay: EMSA
Settings: EMSA: 10 nM probe, 0-1600 nM SFPQ, 20 mM Tris-HCl pH 7.5, 100 mM KCl, 0.5 mM MgCl2, 0.5 mM EDTA, 0.2 mM DTT, 1% glycerol, room temperature, 30 min (RNaseOUT with RNA); recombinant protein; residues 1-707; protein details: N-terminal His6-myc (per text, vector pNIC-CTHF); label: 5'-6-FAM

Row | Sequence | binding result
1 | CUACUACCCCCACCC [15-nt ssRNA R1_10] | binds more weakly
2 | CUACUACCCCCACCCUCACAACC [23-nt ssRNA R1_B] | binds
